From PMC3962350
No constants are given. Whether binding was seen depends on the method and setting. Binding seen in cells or lysates may run through a third protein. Some results given as binding are weak or reduced against the parent protein; the word gives no strength.

Target: T1, EB1 (endogenous, NIH3T3 fibroblasts) (mouse (endogenous in NIH3T3)) (UniProt Q61166)
T1 sequence: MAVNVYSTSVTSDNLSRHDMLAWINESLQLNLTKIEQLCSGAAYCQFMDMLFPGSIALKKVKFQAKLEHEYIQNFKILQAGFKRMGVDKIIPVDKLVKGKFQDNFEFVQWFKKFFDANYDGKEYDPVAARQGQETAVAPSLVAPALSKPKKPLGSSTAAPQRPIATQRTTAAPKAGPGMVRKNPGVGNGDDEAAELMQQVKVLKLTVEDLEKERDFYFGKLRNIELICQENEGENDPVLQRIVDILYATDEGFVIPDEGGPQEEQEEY
Test: co-IP; immunoprecipitation of endogenous EB1 with rabbit anti-EB1 antibody (non-immune rabbit IgG as control) from pre-cleared NIH3T3 fibroblast lysates in 10% RIPA buffer with protease inhibitors and MG132, overnight at 4°C; Protein A/G beads; western blot for EB1 and Kif4

B1: Kif4 (endogenous, NIH3T3 fibroblasts) (protein, UniProt P33174 1-1231)
chain: MKEEVKGIPVRVALRCRPLVSKEIKEGCQTCLSFVPGEPQVVVGNDKSFTYDFVFDPSTEQEEVFNTAVAPLIKGVFKGYNATVLAYGQTGSGKTYSMGGAYTAEQEHDSAIGVIPRVIQLLFKEINKKSDFEFTLKVSYLEIYNEEILDLLCSSREKATQINIREDPKEGIKIVGLTEKTVLVASDTVSCLEQGNNSRTVASTAMNSQSSRSHAIFTISIEQRKKNDKNSSFRSKLHLVDLAGSERQKKTKAEGDRLREGININRGLLCLGNVISALGDDKKGNFVPYRDSKLTRLLQDSLGGNSHTLMIACVSPADSNLEETLNTLRYADRARKIKNKPIINIDPQAAELNHLKQQVQQLQILLLQAHGGTLPGDINVEPSENLQSLMEKNQSLVEENEKLSRGLSEAAGQTAQMLERIILTEQANEKMNAKLEELRRHAACKVDLQKLVETLEDQELKENIEIICNLQQVIAQLSDEAAACMTATIDTAGEADTQVQSSPDTSRSSDVFSTQHALRQAQMSKELIELNKALALKEALAKKMTQNDNQLQPIQFQYQDNIKNLESEVLSLQREKEELVLELQTAKKDANQAKLSERRRKRLQELEGQIADLKKKLQEQSKLLKLKESTEHTVSKLNQEIRMMKNQRVQLMRQMKEDAEKFRQWKQQKDKEVIQLKERDRKRQYELLKLERNFQKQSNVLRRKTEEAAAANKRLKDALQKQKEVAEKRKETQSRGMESTAARMKNWLGNEIEVMVSTEEAKRHLNGLLEERKILAQDVAQLKEKRESGENPPLKLRRRTFSYDEIHGQDSGAEDSIAKQIESLETELELRSAQIADLQQKLLDAESEDRPKQRWESIATILEAKCAIKYLVGELVSSKILVSKLESSLNQSKASCIDVQKMLFEEQNHFAKIETELKEELVKVEQQHQEKVLYLLSQLQQSQMTEKQLEESVSEKEQQLLSTLKCQEEELRKMQEVCEQNQQLLQENSAIKQKLTLLQVASKQKPHLTRNIFQSPDSSFEYIPPKPKPCRIKEKCLEQSFAVEGLQYYSEPSVAEQDNEDSDDHADEEWIPTKLVKVSKKSIQGCSCKGWCGNKQCGCRKQKSDCNVSCSCDPTKCRNRHQNQDNSDAIELNQDSENSFKLEDPTEVTSGLSFFHPICATPSSKILKEMCDADQVQLKQPVFVSSSDHPELKSIASESQENKAIGKKKKRALASNTSFFSGCSPIQEESH
binding: binds
